Measured values taken from publication PMC5843628, “Phosphorylation of conserved phosphoinositide binding pocket regulates sorting nexin membrane targeting” (Nature Communications, 2018).
No constants are given. Whether binding was seen depends on the method and setting.

By UniProt entry, the sequences of proteins in these tests, tags left out. Residues count along the entry.
UniProt Q9UMY4, residues 27-159: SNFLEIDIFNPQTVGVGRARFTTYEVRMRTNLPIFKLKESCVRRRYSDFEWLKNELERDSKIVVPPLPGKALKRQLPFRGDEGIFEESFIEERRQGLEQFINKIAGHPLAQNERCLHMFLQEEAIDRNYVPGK

Legend:
PX domain of SNX12 [1] = target: PX domain of SNX12 (UniProt Q9UMY4); experiment: NMR peak widths; 1H,15N resolved NMR spectra, 298 K; in solution or when bound to PI3P molecules; both purified
PX domain of SNX12 [2] = target: PX domain of SNX12 (UniProt Q9UMY4); experiment: AUC; sedimentation velocity, two-sector cell, 129,024 x g for 17 h at 4 °C, absorbance at 280 nm, in the buffer used for NMR experiments; c(s) by SEDFIT; both purified

Substance: PX domain of SNX12 (from UniProt Q9UMY4 27-159) (domain or fragment)
- binding (PX domain of SNX12 [1]): no binding
- binding (PX domain of SNX12 [2]): no binding
